According to PMC4043118:
Results are given in words; binding and its absence hold for the method and conditions named. Some entries that bind do so weakly or less than the wild type.

Biological target: T1, Pneumolysin (Streptococcus pneumoniae), P0C2J9
T1 chain: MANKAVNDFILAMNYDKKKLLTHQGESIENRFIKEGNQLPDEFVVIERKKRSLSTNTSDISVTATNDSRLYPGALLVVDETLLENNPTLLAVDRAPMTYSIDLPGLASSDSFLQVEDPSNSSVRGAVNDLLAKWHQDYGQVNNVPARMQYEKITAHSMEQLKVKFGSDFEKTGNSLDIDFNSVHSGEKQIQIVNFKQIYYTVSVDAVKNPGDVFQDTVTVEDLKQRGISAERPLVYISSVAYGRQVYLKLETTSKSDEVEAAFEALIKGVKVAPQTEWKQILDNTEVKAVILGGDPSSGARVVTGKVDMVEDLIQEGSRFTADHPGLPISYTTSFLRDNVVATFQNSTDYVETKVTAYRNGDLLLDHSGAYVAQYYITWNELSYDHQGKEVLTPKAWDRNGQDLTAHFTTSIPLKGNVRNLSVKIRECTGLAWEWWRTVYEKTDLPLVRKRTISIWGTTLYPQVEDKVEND
Test: cryo-EM structure; cryo-electron tomography with sub-tomogram classification and averaging; purified pneumolysin on liposomes (egg phosphatidylcholine : cholesterol : dicetyl phosphate 10 : 10 : 1, cholesterol to protein 100 : 1), 37°C for 5 s or 1 min, phosphate buffered saline; membrane-bound oligomers (rings and arcs, pre-pore and pore states); both purified
Conditions: remark: other sources report otherwise

B1: Pneumolysin, P0C2J9 1-471 (protein)
chain: T1 chain
**Q.** B1 was tested. Which binding did it give?
**A.** binds
